Measurements taken from publication PMC4742714.
No constants are given. Whether binding was seen depends on the method and setting. In cells and extracts the contact can be indirect. Some entries that bind do so weakly or less than the wild type.

Chains of the proteins cited; added tags and fusions are not shown.
UniProt P78347: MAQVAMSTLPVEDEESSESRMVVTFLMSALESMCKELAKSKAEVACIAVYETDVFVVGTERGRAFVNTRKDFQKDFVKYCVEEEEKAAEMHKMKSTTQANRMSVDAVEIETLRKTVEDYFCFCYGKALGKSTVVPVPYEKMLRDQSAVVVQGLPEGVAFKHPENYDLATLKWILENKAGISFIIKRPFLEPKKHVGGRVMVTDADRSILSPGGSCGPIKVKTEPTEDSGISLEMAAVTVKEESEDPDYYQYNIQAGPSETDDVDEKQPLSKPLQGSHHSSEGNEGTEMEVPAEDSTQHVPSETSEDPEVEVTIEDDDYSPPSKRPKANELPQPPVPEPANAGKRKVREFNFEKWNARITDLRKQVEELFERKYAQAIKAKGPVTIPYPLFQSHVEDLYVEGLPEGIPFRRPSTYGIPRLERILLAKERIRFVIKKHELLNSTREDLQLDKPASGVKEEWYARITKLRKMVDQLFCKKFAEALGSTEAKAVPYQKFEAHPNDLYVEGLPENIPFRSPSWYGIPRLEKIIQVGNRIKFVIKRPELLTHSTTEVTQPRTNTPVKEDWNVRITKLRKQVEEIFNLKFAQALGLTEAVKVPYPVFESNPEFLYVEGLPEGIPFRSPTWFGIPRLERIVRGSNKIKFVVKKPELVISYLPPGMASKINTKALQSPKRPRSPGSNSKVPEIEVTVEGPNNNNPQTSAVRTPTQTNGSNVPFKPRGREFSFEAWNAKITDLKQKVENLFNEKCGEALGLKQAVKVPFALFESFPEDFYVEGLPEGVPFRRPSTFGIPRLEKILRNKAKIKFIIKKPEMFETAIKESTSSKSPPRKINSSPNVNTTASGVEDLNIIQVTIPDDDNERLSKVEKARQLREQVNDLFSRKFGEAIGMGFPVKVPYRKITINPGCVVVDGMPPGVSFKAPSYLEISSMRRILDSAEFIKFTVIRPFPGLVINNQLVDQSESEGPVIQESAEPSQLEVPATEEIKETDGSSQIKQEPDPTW
UniProt P04489: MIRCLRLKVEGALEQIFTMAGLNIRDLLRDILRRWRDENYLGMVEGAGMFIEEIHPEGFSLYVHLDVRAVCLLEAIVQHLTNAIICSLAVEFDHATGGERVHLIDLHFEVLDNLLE

Molecular target: General transcription factor II-I (TFII-I), FLAG-tagged (UniProt P78347)
Test: co-IP; HeLa cells transfected with pCMV-3Tag-TFII-I, infected the next day with Ad-CMV expressing HA-E4-ORF3; extracts at 12 h postinfection; TFII-I immunoprecipitated with anti-FLAG antibody (isotype-matched IgG as control); E4-ORF3 detected by anti-HA Western blot

## Adenovirus type 5 early region 4 open reading frame 3 (E4-ORF3) protein, HA-tagged, wild type (from UniProt P04489 1-116)
  binding: binds
